First the molecules themselves.
T1: DCAP-2::3XFLAG (C. elegans (endogenous in embryos)) (UniProt O62255)
T1 sequence: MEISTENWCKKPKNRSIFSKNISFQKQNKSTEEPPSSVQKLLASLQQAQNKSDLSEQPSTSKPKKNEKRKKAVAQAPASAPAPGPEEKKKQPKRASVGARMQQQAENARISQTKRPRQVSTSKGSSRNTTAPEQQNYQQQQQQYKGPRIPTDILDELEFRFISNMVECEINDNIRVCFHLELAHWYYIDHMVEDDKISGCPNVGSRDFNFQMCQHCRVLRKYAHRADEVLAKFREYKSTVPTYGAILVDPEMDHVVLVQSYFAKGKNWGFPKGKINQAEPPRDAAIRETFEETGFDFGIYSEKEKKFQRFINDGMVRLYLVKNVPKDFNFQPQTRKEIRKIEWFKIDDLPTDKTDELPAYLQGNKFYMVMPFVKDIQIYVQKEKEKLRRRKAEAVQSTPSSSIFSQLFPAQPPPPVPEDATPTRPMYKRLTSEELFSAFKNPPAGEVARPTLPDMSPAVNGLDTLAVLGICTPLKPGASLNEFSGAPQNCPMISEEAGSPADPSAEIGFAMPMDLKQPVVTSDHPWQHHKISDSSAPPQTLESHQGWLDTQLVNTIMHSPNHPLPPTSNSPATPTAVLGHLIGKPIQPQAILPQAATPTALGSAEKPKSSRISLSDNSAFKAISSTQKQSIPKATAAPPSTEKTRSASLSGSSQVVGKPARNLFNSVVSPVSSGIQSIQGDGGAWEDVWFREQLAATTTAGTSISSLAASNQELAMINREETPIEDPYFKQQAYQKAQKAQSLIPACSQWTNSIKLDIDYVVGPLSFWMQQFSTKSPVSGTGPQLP

Amino acid sequences for entries named in this document (tags omitted). A change or cut given only in a name is not applied to a line headed by its entry.
UniProt D0PV95: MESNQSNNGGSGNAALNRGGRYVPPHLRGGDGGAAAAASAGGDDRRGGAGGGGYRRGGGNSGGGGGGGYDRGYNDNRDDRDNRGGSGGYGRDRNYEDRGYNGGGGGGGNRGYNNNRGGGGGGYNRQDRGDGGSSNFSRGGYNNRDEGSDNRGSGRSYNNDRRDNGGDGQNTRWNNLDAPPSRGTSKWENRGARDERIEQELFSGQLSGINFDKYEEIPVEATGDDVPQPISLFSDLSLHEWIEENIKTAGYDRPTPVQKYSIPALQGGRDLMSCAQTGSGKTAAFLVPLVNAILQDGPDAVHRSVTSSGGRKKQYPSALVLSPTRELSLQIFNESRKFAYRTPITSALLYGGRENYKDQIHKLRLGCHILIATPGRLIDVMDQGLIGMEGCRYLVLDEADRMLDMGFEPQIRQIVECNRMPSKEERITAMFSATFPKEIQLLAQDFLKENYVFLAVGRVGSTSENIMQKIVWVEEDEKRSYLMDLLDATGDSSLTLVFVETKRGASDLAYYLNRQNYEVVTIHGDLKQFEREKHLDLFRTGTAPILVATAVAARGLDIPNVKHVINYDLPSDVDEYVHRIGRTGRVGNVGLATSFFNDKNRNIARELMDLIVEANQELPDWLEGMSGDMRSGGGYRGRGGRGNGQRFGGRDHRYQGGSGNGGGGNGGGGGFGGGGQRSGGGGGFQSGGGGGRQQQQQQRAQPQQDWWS
UniProt Q20937: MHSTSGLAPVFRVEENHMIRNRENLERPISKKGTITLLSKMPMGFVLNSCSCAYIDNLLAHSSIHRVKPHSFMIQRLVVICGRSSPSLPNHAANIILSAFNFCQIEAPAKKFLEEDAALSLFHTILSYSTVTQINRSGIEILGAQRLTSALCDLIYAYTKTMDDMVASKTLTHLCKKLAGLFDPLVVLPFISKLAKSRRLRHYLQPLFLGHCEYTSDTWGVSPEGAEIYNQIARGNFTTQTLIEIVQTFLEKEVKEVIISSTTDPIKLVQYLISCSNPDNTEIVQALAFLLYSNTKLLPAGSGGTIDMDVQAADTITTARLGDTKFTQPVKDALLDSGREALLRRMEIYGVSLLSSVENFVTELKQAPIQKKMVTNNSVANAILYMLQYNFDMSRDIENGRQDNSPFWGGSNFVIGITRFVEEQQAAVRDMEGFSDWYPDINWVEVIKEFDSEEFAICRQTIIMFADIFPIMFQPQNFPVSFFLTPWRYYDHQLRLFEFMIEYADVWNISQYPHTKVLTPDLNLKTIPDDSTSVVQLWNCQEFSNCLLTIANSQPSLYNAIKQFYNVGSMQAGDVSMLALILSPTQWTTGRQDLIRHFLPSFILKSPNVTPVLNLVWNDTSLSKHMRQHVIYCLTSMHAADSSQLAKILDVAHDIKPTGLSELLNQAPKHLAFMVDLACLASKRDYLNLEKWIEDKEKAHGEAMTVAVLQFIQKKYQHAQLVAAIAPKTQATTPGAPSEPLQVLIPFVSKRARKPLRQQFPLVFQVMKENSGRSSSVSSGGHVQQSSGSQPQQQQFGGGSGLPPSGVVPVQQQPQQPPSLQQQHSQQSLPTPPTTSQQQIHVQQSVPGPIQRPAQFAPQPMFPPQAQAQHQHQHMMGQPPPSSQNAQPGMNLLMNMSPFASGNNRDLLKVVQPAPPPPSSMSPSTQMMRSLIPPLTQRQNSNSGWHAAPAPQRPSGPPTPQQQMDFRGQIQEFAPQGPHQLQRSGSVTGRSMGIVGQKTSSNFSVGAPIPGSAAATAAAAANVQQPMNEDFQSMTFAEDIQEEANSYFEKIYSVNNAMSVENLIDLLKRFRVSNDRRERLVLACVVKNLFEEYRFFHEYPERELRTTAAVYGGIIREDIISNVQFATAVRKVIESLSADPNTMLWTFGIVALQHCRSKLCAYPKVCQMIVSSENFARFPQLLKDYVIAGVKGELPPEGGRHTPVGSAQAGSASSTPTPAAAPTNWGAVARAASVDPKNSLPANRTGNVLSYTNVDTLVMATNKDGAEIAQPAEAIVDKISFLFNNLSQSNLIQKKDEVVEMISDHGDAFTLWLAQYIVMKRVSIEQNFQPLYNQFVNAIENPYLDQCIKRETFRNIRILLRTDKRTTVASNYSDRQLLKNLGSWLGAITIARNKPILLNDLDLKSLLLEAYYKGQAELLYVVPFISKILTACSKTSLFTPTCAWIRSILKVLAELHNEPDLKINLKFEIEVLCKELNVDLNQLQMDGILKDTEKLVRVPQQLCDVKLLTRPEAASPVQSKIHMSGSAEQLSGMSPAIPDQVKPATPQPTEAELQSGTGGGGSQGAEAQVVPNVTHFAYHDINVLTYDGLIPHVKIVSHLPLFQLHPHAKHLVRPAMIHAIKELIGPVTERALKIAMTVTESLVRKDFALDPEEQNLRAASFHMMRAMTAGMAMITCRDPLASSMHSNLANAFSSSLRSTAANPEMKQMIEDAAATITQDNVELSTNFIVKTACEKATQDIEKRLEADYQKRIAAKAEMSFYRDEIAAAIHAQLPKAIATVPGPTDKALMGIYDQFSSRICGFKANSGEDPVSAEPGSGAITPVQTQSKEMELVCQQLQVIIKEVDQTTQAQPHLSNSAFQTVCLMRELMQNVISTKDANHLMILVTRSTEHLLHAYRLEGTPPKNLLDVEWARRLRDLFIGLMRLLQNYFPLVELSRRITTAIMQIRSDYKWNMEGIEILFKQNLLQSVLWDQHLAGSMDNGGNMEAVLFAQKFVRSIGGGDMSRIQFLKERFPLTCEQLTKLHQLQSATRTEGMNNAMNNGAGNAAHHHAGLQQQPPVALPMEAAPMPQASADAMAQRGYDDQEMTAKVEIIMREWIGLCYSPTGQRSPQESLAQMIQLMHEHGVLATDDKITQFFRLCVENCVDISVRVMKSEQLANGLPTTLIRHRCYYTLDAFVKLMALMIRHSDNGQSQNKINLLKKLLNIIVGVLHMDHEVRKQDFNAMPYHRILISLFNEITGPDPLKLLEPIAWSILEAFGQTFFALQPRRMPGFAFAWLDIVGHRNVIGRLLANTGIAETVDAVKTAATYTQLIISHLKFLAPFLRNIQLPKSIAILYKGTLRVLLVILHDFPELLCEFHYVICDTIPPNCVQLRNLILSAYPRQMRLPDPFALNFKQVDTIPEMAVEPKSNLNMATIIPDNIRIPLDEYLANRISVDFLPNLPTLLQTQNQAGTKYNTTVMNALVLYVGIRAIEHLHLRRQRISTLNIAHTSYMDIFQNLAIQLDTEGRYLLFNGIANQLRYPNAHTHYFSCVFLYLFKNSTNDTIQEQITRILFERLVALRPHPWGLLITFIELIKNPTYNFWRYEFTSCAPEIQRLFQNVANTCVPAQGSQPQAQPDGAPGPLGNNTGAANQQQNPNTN
UniProt Q21740: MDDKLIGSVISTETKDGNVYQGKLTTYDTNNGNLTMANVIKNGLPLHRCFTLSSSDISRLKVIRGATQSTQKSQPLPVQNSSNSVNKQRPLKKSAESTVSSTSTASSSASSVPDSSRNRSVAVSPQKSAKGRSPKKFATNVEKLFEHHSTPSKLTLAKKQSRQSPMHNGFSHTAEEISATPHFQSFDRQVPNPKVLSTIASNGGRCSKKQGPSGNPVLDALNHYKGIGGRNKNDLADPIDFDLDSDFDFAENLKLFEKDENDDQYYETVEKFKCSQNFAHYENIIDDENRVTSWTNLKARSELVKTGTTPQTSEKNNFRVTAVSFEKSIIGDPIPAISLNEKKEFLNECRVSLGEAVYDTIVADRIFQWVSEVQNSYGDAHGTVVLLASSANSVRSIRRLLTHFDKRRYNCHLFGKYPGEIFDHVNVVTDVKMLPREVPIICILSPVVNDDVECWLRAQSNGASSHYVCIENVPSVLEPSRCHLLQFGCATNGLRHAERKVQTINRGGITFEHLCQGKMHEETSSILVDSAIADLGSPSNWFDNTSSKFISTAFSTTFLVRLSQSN
UniProt Q18224: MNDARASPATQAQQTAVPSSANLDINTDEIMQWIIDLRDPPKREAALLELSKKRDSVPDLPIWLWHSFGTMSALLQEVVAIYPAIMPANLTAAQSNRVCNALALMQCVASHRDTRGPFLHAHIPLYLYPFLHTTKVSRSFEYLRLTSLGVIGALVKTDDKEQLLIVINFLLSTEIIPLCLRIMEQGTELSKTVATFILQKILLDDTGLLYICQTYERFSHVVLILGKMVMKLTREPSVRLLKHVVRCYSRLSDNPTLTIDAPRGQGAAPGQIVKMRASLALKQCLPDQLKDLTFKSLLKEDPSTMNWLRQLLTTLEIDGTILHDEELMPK

B1: EIF-3.C (protein, UniProt O02328 1-898)
chain: MSRFFHAKEDSDSDTSSSEDEVEDQKVNKSAKFRDDLDFMAGPEEDEKRVVRAQKDKKFDELKGIIKQNRDAKSNKDLNRLLTGFDSLAKAYDKSKTVFQRQNVANPRFYIRSLVEIEDYVNKLWDDKDAKSALSKNNAKALPPLRQKLKKYIKDQQLQDLVTDYRVNPDEDGYETPEDEDDDDFGEVSESKAEKSPGKPSEKAAVSDSDSDSDDDDSSNWSSEPESNSSDDEDSVTKMEQLRRYFLKKEFRVESKDDKKEKKKRVIRVKEAVEEDDDADWTPVNREKSVVHFDPKEEVTHDVMIKKLNEVMSARGKRTTDRNQHVANLRKLLEVSEEKELGLGINVKISFCIISALFELNAKISDHMEYETFMTTLQTVNSLLDLLIGTDRVKLSVTYAEEDENLKDDTQEYRIQGSILIAVQRLDGELAKILQNADCHSNDYIEKLKAEKDMCSLIEKAEKYVELRNDSGIFDKHEVCKVYMMRIEHAYYKYQDQNEEDAGKLMDYLCNKIYTLDDEKRLRQRAMLCHVYYLAVHDKWHRARDLLLMSHMQAIVDHSDVDTQILYNRTICQLGLCAFRHGFIREAHQGLSEIQNTQRAKELLAQAVGTRQHEKTAEQEKIDRSRQVPYHMHINVELMECVYLICSMLLEIPHMASCEFEMRRRMLSRSFHYQLKQSEKASLTGPPENTREHVVAASKAMLNGDWKKCQDYIVNDKMNQKVWNLFHNAETVKGMVVRRIQEESLRTYLLTYSTVYATVSLKKLADLFELSKKDVHSIISKMIIQEELSATLDEPTDCLIMHRVEPSRLQMLALNLSDKLQTLAENNEQILEPRTGRGGYQGPGSWFPGRNERQGDKQKGSGGYQGERRGGQGQDGKRGNWGSQGGQQRRHPQKPRAF
B2: EIF-3.B (protein, UniProt Q9XWI6 1-725)
chain: MVEIDFNKENEEDFSDPPGFVDDVTDDVLVPDVLHKKPTIDEFEDNCVFIAGIPVVGADRLGKLQSVLKKVLERLDPAVKLYIPPSPEGGCLGVLLTEWADQRSAQFAVKSLNGYAFDKNHTFTARSFKDMKQLEAPSDHWTTPEKQAYNDVGDLWWWLQNERCRDQFAISHDKLGVPTVGVFTNMKGNDPELAGDADKAERANWTETVFTWSPHGSYLSTIHKQGIILWGGKDYARAHRFAHTNVQYIDFSPCETYLVTYAAPEESNSWGDCEKDSLRIWDVRTGELKKAFSTFELTGRTQLPTWPFFRWSFDEKYFACLKAPEKDKLEREQKINGISIFESEKFELYEGRPVNIENIKQFEWSPTSTVLAYYSECTDAVPAEFGLLQVPSMQRLRSARVHNVADAQMFWQKSGKRLAFYTMRFKKKEYRETGEVKYVGGCQYHVDIFEIDKKDVSLMNLPLSEPFIHFDWDPEGDKFCVLVGNTAKATPQVYKIEANSHAPKLVSKLDAGVHFNEVQFAPKGGWLAVLAKVSAGGNVYFIDTSLSEAKRTNVIEHPLFNKGYWDPTGRYFVTCSTLGGRAGADLGYRIFTFQGRELCRKNLDRLAQFKWRPRPPVKLSEQKQREIKKNLKKTAAKFIKQDDDEKCRASQEVVEKRRKIMAAFDIIRSRNREQLDATRDERISLRNGVDTEAQLDEDEFVDEEITIALSTSKTQAPLTEEEMRD
B3: CCF-1 (protein, UniProt Q17345 1-310)
chain: MASSSSGGAGGAGGASGAPEVKIHNVYMSNVEEEFARIRGFVEDYPYVAMDTEFPGVVATPLGTFRSKEDFNYQQVFCNVNMLKLIQVGFAMVNDKGELPPTGDVWQFNFNFSFAEDMFSHESVEMLRQAGIDFTLLQNNGIPTAVFGELLTTSGLITDPRITWLTFSSGYDFGYLLKSITLGDLPKEESTFFMCHKTLFPTSFDIKILLRTPNCASAKLKGGLQEVADQLDVKRQGVRHQAGSDALLTAATFFKIKKQFFGDNWNQIAPLICGHMFGLGSSLSLFHSSGSTSRLGDETPQGLIGVPQQA

These are yes or no findings as the source states them, for the method shown. Binding seen in cells or lysates may run through a third protein. Here binding means that the protein was enriched with, or labelled near, the bait; the list need not be complete. Sequences can lack the tags named with a protein.

For the test, the target named is T1, DCAP-2::3XFLAG (C. elegans (endogenous in embryos)). In words: affinity purification with mass spectrometry.
With LAF-1 (from UniProt D0PV95 1-708), the binding result is “binds”.

As for “NTL-1/LET-711 (from UniProt Q20937 1-2641)”, the binding result is reported as “binds”.

As to EDC-3 (from UniProt Q21740), the binding entry is “binds”.

Consider NTL-9 (from UniProt Q18224), for which the binding result is listed as “binds”.

As for B1, the binding result is “binds”.

In the case of B2, the binding entry is on record as “binds”.

In the case of B3, the binding entry is recorded as “binds”.

For the origin of these results see article doi:10.1101/2024.03.04.583404.
